According to US20250092130A1:
No constants are given. Whether binding was seen depends on the method and setting. Some results given as binding are weak or reduced against the parent protein; the word gives no strength.

The chains behind the UniProt entries cited, without tags or fusion partners. Where a name states a change or a piece, a line headed by the entry shows the natural chain unless it says otherwise.
UniProt P43630: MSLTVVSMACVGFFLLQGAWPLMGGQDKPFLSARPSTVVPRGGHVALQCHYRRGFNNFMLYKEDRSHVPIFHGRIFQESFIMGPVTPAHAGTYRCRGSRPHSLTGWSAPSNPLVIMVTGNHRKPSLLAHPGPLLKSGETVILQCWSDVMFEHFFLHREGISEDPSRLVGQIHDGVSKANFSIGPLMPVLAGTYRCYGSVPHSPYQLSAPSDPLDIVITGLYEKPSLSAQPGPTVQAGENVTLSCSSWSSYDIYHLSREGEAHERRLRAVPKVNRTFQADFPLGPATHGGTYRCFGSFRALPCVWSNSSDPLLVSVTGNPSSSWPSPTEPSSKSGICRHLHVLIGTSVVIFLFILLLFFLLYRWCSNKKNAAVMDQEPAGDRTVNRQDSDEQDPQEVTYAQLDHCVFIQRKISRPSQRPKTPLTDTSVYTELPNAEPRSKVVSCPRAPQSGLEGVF

Columns and labels:
[1] = molecular target: KIR3DL2 mutant M11A4 (E130S, H131S, R145S) (human) (UniProt P43630); assay: binding to cells transfected with KIR3DL2 mutants
[2] = molecular target: KIR3DL2 mutant having P14S, S15A and H23S substitutions (human) (UniProt P43630); assay: binding to KIR3DL2 mutants

Row | binding [1] | binding [2] | Binder
1 | binds |  | antibody 12B11 (antibody, IgG1, V domains shown) VH: QLVQSGPELKNPGETVKISCKASGYTFTNYGMNWVKQAPGKGLKWMGWINTYTGEPTYADDFKGRFAFSLETSASTAYLQINNLKNEDTATYFCAHGPWLAYWGQGTLVTVS VL: DIKMTQSPSSMYASLGERVTITCKASQDINVYLSWFQQKPGKSPKTLIYRAIRLVDGVPSRFSGSGSGQDYSLTISSLDYEDMGIYYCLQYDELPYTFGGGTKLEIE
2 |  | binds | antibody 2B12 (antibody, V domains shown) VH: QIQLVQSGPELKKPGETVRISCKASGYTFTTAGMQWVQKTPGKGLKWIGWINSHSGVPKYAEDFKGRFAFSLETSASTAYLQISTLKNEDTATYFCARGGDEGVMDYWGQGTSVTVS VL: DIVMTQSHKFMSTSLGDRVSFTCKASQDVSTAVAWYQQKPGQSPKLLIYWTSTRHTGVPDRFTGSGSGTDYTLTISSVQAEDLALYYCQQHYSTPWTFGGGTKLEIK
